Measurements as given in the supplement of paper PMC9549374.
Some of the results follow. Rule as the data show it: active = 2-fold of DMSO or more and inactive = the rest. Single values of this set are uncertain. Some low values are a fixed figure set by the source, not a measured ratio.

Tested on: CM7/1-hgem mouse ES cell-derived cardiomyocytes
Assay: maximal number of mAG-hGem(1/110)-positive cardiomyocytes over 96 h, fold-change vs DMSO; higher = more cardiomyocyte cell cycle activity
Settings: 1 µM; 96 (max over 12 h time points) h

| Compound | maximal number |
| --- | --- |
| O=c1cccc2ccc(O)c(O)c2c1O | inactive: 1 |
| CCN(CC)CCNC(=O)COc1ccc(OC)cc1 | inactive: 0 |
| CC(C)NCC(O)COc1ccc(CC(N)=O)cc1 (stereo not drawn) | inactive: 1 |
| C[C@]12CC[C@@H]3c4ccc(O)cc4C[C@@H](CCCCCCCCC[S+]([O-])CCCC(F)(F)C(F)(F)F)[C@H]3[C@@H]1CC[C@@H]2O (stereo partly drawn) | inactive: 1 |
| Cc1nc(Nc2ncc(C(=O)Nc3c(C)cccc3Cl)s2)cc(N2CCN(CCO)CC2)n1 | inactive: 1 |
| CC(=O)OC1CCC23CC1(C)CCC2C(C)(C)CC3OC(C)=O (stereo not drawn) | inactive: 1 |
| O=c1c(O)cc([C@H]2Oc3cc(O)cc(O)c3C[C@H]2O)cc2c([C@H]3Oc4cc(O)cc(O)c4C[C@H]3O)cc(O)c(O)c12 | inactive: 1 |
| O=C1NCC2(CCN(CCc3ccccc3)CC2)O1 | inactive: 1 |
| C#C[C@]1(O)CC[C@H]2[C@@H]3CCC4=CC(=O)CC[C@@H]4[C@H]3CC[C@@]21CC | inactive: 1 |
| CC(N/C(=N\C#N)Nc1ccncc1)C(C)(C)C (stereo not drawn) | inactive: 1 |
| O=C(OC[C@H]1O[C@@H](OC(=O)c2cc(O)c(O)c(OC(=O)c3cc(O)c(O)c(O)c3)c2)[C@H](OC(=O)c2cc(O)c(O)c(OC(=O)c3cc(O)c(O)c(O)c3)c2)[C@@H](OC(=O)c2cc(O)c(O)c(OC(=O)c3cc(O)c(O)c(O)c3)c2)[C@@H]1OC(=O)c1cc(O)c(O)c(OC(=O)c2cc(O)c(O)c(O)c2)c1)c1cc(O)c(O)c(OC(=O)c2cc(O)c(O)c(O)c2)c1 | inactive: 1 |
| COc1cc(OC)c(C(C)=O)c(O)c1C | inactive: 1 |
| O=C(O)COC(=O)Cc1ccccc1Nc1c(Cl)cccc1Cl | inactive: 1 |
| CC(=O)SCC(Cc1ccccc1)C(=O)NCC(=O)OCc1ccccc1 (stereo not drawn) | inactive: 1 |
| CCC(=O)Oc1ccc2c(c1)CC[C@@H]1[C@@H]2CC[C@]2(C)[C@@H](OC(=O)CC)CC[C@@H]12 | inactive: 1 |
| C=C1CCC2C(CC2(C)C)C(=C)CC/C1=N/O (stereo not drawn) | inactive: 1 |
| Cc1ccc(Nc2c(F)cccc2Cl)c(CC(=O)O)c1 | inactive: 1 |
| COc1cc(O)c2c(c1)C(=O)c1cc(C)cc(O)c1C2=O | inactive: 0 |
| O=C(O)CCNC(=O)c1ccc(/N=N/c2ccc(O)c(C(=O)O)c2)cc1 | inactive: 0 |

2 successive entries from above, quoted:

| Compound | maximal number |
| --- | --- |
| Cc1ccc(Nc2c(F)cccc2Cl)c(CC(=O)O)c1 | inactive: 1 |
| COc1cc(O)c2c(c1)C(=O)c1cc(C)cc(O)c1C2=O | inactive: 0 |

Remaining list, next part.

| Compound | maximal number |
| --- | --- |
| O=C(Oc1cc(O)cc2c1C[C@@H](OC(=O)c1cc(O)c(O)c(O)c1)[C@@H](c1ccc(O)c(O)c1)O2)c1cc(O)c(O)c(O)c1 | inactive: 0 |
| CC(=O)O[C@H]1C[C@@H](OC(C)=O)C(C)(C)[C@@H]2C[C@@H](OC(C)=O)[C@@]3(C)C4=CC(=O)O[C@@H](c5ccoc5)[C@]4(C)CC[C@@H]3[C@@]12C | inactive: 0.5 |
| CC(C)=CCOc1cc2oc(=O)ccc2cc1O | inactive: 1 |
| Cc1nccn1CC1CCc2c(c3ccccc3n2C)C1=O (stereo not drawn) | inactive: 1 |
| CN1CCN(c2cc3c(cc2F)c(=O)c(C(=O)O)cn3-c2ccc(F)cc2)CC1 | inactive: 1 |
| CCN(CCCCOC(=O)c1ccc(OC)c(OC)c1)C(C)Cc1ccc(OC)cc1 (stereo not drawn) | inactive: 1 |
| O=C(O)C(=O)O.[NH-][C@@H]1CCCC[C@H]1[NH-].[Pt+2] | inactive: 1 |
| COc1cc(O)c2c(=O)cc(C)oc2c1CC=C(C)C | inactive: 1 |
| CC(C)c1c(O)c(-c2cc3c(c(C(C)C)c2O)CCC2C(C)(C)CCC[C@]32C)cc2c1CCC1C(C)(C)CCC[C@]21C (stereo partly drawn) | inactive: 0 |
| CCc1cccc2c3c([nH]c12)C(CC)(CC(=O)O)OCC3 (stereo not drawn) | inactive: 1 |
| C[C@H](CCC(=O)O)[C@H]1CC[C@H]2[C@@H]3CC[C@@H]4CCCC[C@]4(C)[C@H]3CC[C@]12C | inactive: 1 |
| C=C1CCC2C(CC2(C)C)C(=O)CCC1O (stereo not drawn) | inactive: 1 |
| CC1(C)CC2C1CCC1(C)OC1CCC2(C)O (stereo not drawn) | inactive: 1 |
| O=c1cc[nH]c(=O)[nH]1 | inactive: 1 |
| O=c1c(O)c(-c2ccccc2)oc2ccccc12 | inactive: 1 |
| CC(C)=CCC[C@@H](C)[C@H]1CC[C@@]2(C)C3=C(CC[C@]12C)[C@@]1(C)CC[C@H](O)C(C)(C)[C@@H]1CC3 | inactive: 1 |
| CC(C)C[C@H](N)C(=O)N[C@@H](C)C(=O)O | inactive: 1 |
| COc1cc(OC)c2c(c1Cl)O[C@@]1(C(=O)CC(=O)C[C@H]1C)C2=O | inactive: 1 |
| COc1ccc(/C=C/C(=O)Nc2ccccc2C(=O)O)cc1OC | inactive: 1 |
